From PMC5127646
Results are given in words; binding and its absence hold for the method and conditions named. Some entries that bind do so weakly or less than the wild type. One block for each binder: values may come before it.

Assays:
[1] = target: RBM5 OCRE domain (residues 451-511), wild type (human) (UniProt P52756); test: NMR titration; 0.2 mM ^15N-labeled OCRE titrated with an excess of unlabeled SmN or SmB constructs, 1H,15N HSQC, 298 K, 20 mM sodium phosphate pH 6.5, 50 mM NaCl; both purified
[2] = target: RBM5 OCRE domain (residues 451-511), wild type (human) (UniProt P52756); test: NMR titration; SmN-derived wild type and mutant 11-mer peptides at a 1:10 ratio of OCRE:peptide; normalized CSP score of 7 OCRE residues, semi-quantitative relative affinities; both purified

binding [1]: binds weakly | binding [2]: binds weakly
B1: SmN peptide, residues 219-229 (…) (peptide)
peptide: GMRPPPPGIRG

binding [2]: binds weakly
B2: SmN-derived mutant peptide … (peptide)
peptide: GMAPPPPGIRG
